Library compounds against nucleic acid targets

Data from the ROBIN nucleic acid binder screens, doi:10.1002/anie.202211358.

Targets, with sequences 5′ to 3′:
T1: SAM-II riboswitch RNA pseudoknot, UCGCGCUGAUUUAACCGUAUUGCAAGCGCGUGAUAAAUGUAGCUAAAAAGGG. About 200 hits among about 21,000 compounds.
T2: PreQ1 riboswitch RNA pseudoknot, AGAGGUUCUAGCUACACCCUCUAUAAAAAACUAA. From B. subtilis. About 170 hits among about 24,000 compounds.
T3: TPP riboswitch RNA three-way junction, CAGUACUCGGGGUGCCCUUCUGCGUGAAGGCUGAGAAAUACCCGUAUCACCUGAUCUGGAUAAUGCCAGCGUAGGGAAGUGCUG. About 160 hits among about 24,000 compounds.

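Each compound is printed as two spots on a slide made to bind it covalently, so it has no test concentration; the read-out is fluorescence of the bound, labelled oligonucleotide. The data file lists only calls. An earlier report of the laboratory on the PreQ1, TPP and SAM-II riboswitches (doi:10.1038/s41467-019-09493-3) used 1 µM RNA for 2 h and required a mean Z-score above 3 (spot signal-to-noise against the whole library), a score well above that on a control array, and duplicate spots agreeing (coefficient of variation under 100); it then also set aside compounds that hit other targets, which this list keeps. The cut-offs behind this list may differ. These are primary screening calls, not affinities; a compound without a hit may have attached poorly or may still bind in solution.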 A compound is marked 1 if it was called a hit and 0 if it was screened but was not. The compounds are a random part of those screened. A dash means that no call is listed here.

compound | T1 | T2 | T3
NCCc1nc(NCc2cn[nH]c2-c2cccs2)c2ccccc2n1 | 1 | 0 | 0
COc1cc(C2CC(=O)Nc3nc(N)[se]c32)c(OC)c2c1OCO2 (configuration not stated) | 0 | 0 | 0
Cc1nn(C(C)C)c(C)c1CN(C)C(=O)C1CC2(CCNCC2)CN1C (configuration not stated) | 0 | 0 | 0
Nc1cccc(C(=O)CC2(O)C(=O)Nc3ccc(Cl)cc32)c1 (configuration not stated) | 0 | 0 | 0
CC(C)CNc1c(N)c(=O)oc2ccccc12 | 0 | 0 | 0
COc1cc(C)c(N)cc1C(C)C.Cl | 0 | 0 | 0
COc1ccc(CN[C@@H]2CS(=O)(=O)C[C@H]2O)cc1OCc1cccc(F)c1 | 0 | 0 | 0
CCn1cc(S(=O)(=O)N2CC[C@H](CO)[C@H](O)C2)cn1 | 0 | 0 | 0
CNS(=O)(=O)Cc1ccc2[nH]cc(CCN(C)C)c2c1 | 0 | 0 | 0
Cc1ccc(-c2nc(N(C)Cc3nccn3C)ncc2-c2ccc(N)nc2)cc1 | 0 | 0 | 0
Cc1cc(=O)oc2c(CN3CCN(CCO)CC3)c(O)ccc12 | - | 0 | 0
Cc1ccc2c(c1Br)C1(C(=O)N2)C(C#N)=C(N)Oc2c1c(=O)oc1ccccc21 (configuration not stated) | 0 | 0 | 0
CCN1CCN(CC(O)COc2ccc3c(c2)CCC3)CC1.Cl.Cl (configuration not stated) | 0 | 0 | 0
CCCCc1ccc(-n2cc(CN3CCOCC(CO)C3)cn2)cc1 (configuration not stated) | 0 | 0 | 0
Clc1ccc(NCc2nnc3n2CCCC3)cc1 | 0 | 0 | 0
CCN(CCNC(=O)C(N)c1c(C)n[nH]c1C)c1cccc(C)c1 (configuration not stated) | 0 | 0 | 0
Cc1nc(CCNC(=O)c2cccc(C3CCCNC3)c2)nc2c1CCC2 (configuration not stated) | 0 | 0 | 0
O=C1CCC2(CCCN(Cc3ccc(-c4ccccn4)cc3)C2)CN1CCO (configuration not stated) | 0 | 0 | 0
CC(C)(C)N1CCC1CN (configuration not stated) | 0 | 0 | 0
CC(O)(CS(=O)(=O)c1ccc(F)cc1)C(=O)Nc1ccc(C#N)c(C(F)(F)F)c1 (configuration not stated) | 0 | 0 | 0
CS(=O)(=O)N1CCc2[nH]cnc2C12CCN(c1ccnc(N)n1)CC2 | 0 | 0 | 0
CC(C)c1ccc(-c2csc(Nc3ccc(S(N)(=O)=O)cc3)n2)cc1 | 0 | 0 | 0
Cc1ccc(-c2cnc(NCc3cccc(Br)c3)n2C)cc1 | 0 | 0 | 0
Cc1cc(C)n2nc(NCc3c(F)cccc3Cl)nc2n1 | - | 0 | 0
CCC(C)NC1=C(C(N)=O)S(=O)(=O)c2ccccc21 (configuration not stated) | - | 0 | 0
OC1(CNCc2csc(Cc3ccccc3)n2)CCNC1 (configuration not stated) | 0 | 0 | 0
NC(N)=Nc1nc(CSCCC(N)=NS(N)(=O)=O)cs1 | 0 | 0 | 0
Cl.Cl.Cl.Cl.Nc1ccc(-c2ccc(N)c(N)c2)cc1N.O.O | 0 | 0 | 0
Nc1cc(N2CCC(OCc3ccccc3)CC2)ncn1 | 0 | 0 | 0
CC(C)(N)Cc1ccc(Cl)cc1 | 0 | 0 | 0
O=C(O)CCCCCNc1ncnc2ccccc12 | 0 | 0 | 0
Cn1c(=O)n(C)c2cc(CNCCCN3CCCC3=O)ccc21 | - | 0 | 0
N#CC1=C(N)Oc2[nH]cnc(=O)c2C1c1ccc(F)c(Br)c1 (configuration not stated) | 0 | 0 | 0
Cc1cccc(-c2nc3nc(C)cc(N4CCN(CCO)CC4)n3n2)c1 | - | 0 | 0
O[C@@H]1C[C@H](O)C12CCN(Cc1ncc[nH]1)CC2 | 0 | 0 | 0
COc1ccc2[nH]c(-c3ccccc3)cc2c1 | 0 | 0 | 0
Cc1nn(CCNC(=O)[C@@H]2C[C@@H](NC(=O)c3ccccc3)CN2)c(C)c1Cl | 0 | 0 | 0
Cc1ccccc1C1CCCN1C(=O)CN1CC2(CCNCC2)OC1=O (configuration not stated) | 0 | 0 | 0
Fc1ccc(NC(c2ccc(F)cc2)c2nnc(-c3ccccc3)o2)cc1 (configuration not stated) | 0 | 0 | 0
O=C1CC(c2ccc(F)cc2)Cc2nc(NC3CCCC3)ncc21 (configuration not stated) | 0 | 0 | 0
COC(=O)c1cc(OCC2CCC2)cc(C(=O)N2CCC(O)C2)c1 (configuration not stated) | 0 | 0 | 0
CCNc1nc(N(C)C)nc(-n2cnc(SC)n2)n1 | - | 0 | 0
CC(=O)Oc1ccccc1C(=O)Nc1ncc([N+](=O)[O-])s1 | 0 | 0 | 0
Cc1cc(C)c2c(N)c(C(=O)c3ccccc3)sc2n1 | 0 | 0 | 0
N[C@@H]1CC[C@@H](NC(=O)CCn2ccc(=O)[nH]c2=O)C1 | 0 | 0 | 0
Nc1ccc(/N=N/c2ccc(O)cc2)c(N)n1 | 0 | 0 | 0
NC(c1ccccc1)c1ccc(Cl)cc1 (configuration not stated) | 0 | 0 | 0
COc1ccc(-c2ccc(=O)n(CCN)n2)cc1 | 0 | 0 | 0
Cc1ccc(C(=O)NCCNc2ccc(Cl)cc2[N+](=O)[O-])cc1 | 0 | 0 | 0
COc1ccc(C2C(C#N)=C(N)Oc3[nH]nc(C)c32)cc1O (configuration not stated) | 0 | 0 | 0
COc1ccc(NC(=O)c2sc3nc4c(cc3c2N)CN(Cc2ccccc2)CC4)cc1 | 0 | 0 | 0
Cc1cc(C)c2c(-n3nnc(C#N)c3N)nn(C)c2n1 | 0 | 0 | 0
N#C/C(=C\c1cc(O)c(O)c(O)c1)C(N)=O | 0 | 0 | 0
Cn1c(=O)c2c(nc(NCc3cccnc3)n2Cc2ccc(F)cc2)n(C)c1=O | 0 | 0 | 0
CC(C)(C)NC(=O)c1sc2nc(-c3ccccc3)cc(-c3ccc(F)cc3)c2c1N | 0 | 0 | 0
Cc1ccc(C)c2c(O)cc(CNC[C@@H]3C[C@H](F)CN3)nc12 | 0 | 0 | 0
CC(Cn1ccnc1)NCc1noc(C2CCCC2)n1 (configuration not stated) | 0 | 0 | 0
CN1CCCC(n2nc(Cc3ccc(Cl)cc3)c3ccccc3c2=O)CC1 (configuration not stated) | 0 | 0 | 0
CCN(CC)S(=O)(=O)c1ccc(OC)c(Nc2cc(-c3ccccc3)nc(C)n2)c1 | - | 0 | 0
CCOC(=O)CCCSc1nc(N)c2c(C)c(C)sc2n1 | 0 | 0 | 0
CCOc1ccccc1-n1c(C(C)N2CCN(C(=O)COc3ccc(Cl)cc3)CC2)nc2ccccc2c1=O (configuration not stated) | 0 | 0 | 0
Cc1cc(C)c2nc(C)cc(Nc3ccc(C(=O)O)cc3)c2c1 | 0 | 0 | 0
O=C(NC(CO)c1nc2ccccc2[nH]1)c1ccccc1 (configuration not stated) | - | 0 | 0
COc1ccc(Cc2nc(-c3cnc(N)nc3C)n(CC(=O)O)n2)cc1 | 0 | 0 | 0
c1ccn2c(C3CCN(Cc4cc5n(n4)CCCNC5)CC3)nnc2c1 | 0 | 0 | 0
COc1ccc(Br)cc1Cn1nnc(C(=O)NCc2ccccc2)c1N | 0 | 0 | 0
N[C@@H](C(=O)N1CCC2(CCC(=O)N(Cc3ccncc3)C2)CC1)C1CCCCC1 | 0 | 0 | 0
N#CC(=C(N)Sc1ccc(N)cc1)c1ccccc1C(F)(F)F | 0 | 0 | 0
c1nc(N2CCC(NC3COC4(CCCC4)C3)CC2)c2nc[nH]c2n1 (configuration not stated) | 0 | 0 | 0
COc1ccc(-c2cc(C(=O)N3C[C@H](c4ccc(C)o4)[C@@H](N)C3)[nH]n2)cc1 | 0 | 0 | 0
CC(NC(=O)c1cn(CCN)nn1)c1ccc2c(c1)CCCC2 (configuration not stated) | 0 | 0 | 0
Cn1c(=O)c2c(ncn2CC(O)CNc2ccc(Cl)cc2)n(C)c1=O (configuration not stated) | 0 | 0 | 0

Some entries from above, unchanged:

| compound | T1 | T2 | T3 |
|---|---|---|---|
| `OC1(CNCc2csc(Cc3ccccc3)n2)CCNC1` (configuration not stated) | 0 | 0 | 0 |
| `Clc1ccc(NCc2nnc3n2CCCC3)cc1` | 0 | 0 | 0 |
| `CC(C)c1ccc(-c2csc(Nc3ccc(S(N)(=O)=O)cc3)n2)cc1` | 0 | 0 | 0 |
| `Cc1ccc(C(=O)NCCNc2ccc(Cl)cc2[N+](=O)[O-])cc1` | 0 | 0 | 0 |
| `NC(c1ccccc1)c1ccc(Cl)cc1` (configuration not stated) | 0 | 0 | 0 |
| `COc1ccc(-c2ccc(=O)n(CCN)n2)cc1` | 0 | 0 | 0 |
| `CC(C)(C)N1CCC1CN` (configuration not stated) | 0 | 0 | 0 |
| `COc1ccc(C2C(C#N)=C(N)Oc3[nH]nc(C)c32)cc1O` (configuration not stated) | 0 | 0 | 0 |
| `N[C@@H]1CC[C@@H](NC(=O)CCn2ccc(=O)[nH]c2=O)C1` | 0 | 0 | 0 |